# Laboratory results published in patent publication US20040235080A1, “Methods and reagents for detecting endotoxin” (priority 2001, published 2004).
# For at least one compound, name, drawing or mass did not settle the structure. Some entries share one result that the patent states for a list of compounds. Some ranges recur; such a range may be that of the whole group of compounds.
# Molecular target: T1, recombinant Factor C (rFC) (Carcinoscorpius rotundicauda, UniProt Q26422)
# T1 construct: made in house; host or cells: Culture supernatant, lot 031901I
# T1 sequence (Q26422 26-1019): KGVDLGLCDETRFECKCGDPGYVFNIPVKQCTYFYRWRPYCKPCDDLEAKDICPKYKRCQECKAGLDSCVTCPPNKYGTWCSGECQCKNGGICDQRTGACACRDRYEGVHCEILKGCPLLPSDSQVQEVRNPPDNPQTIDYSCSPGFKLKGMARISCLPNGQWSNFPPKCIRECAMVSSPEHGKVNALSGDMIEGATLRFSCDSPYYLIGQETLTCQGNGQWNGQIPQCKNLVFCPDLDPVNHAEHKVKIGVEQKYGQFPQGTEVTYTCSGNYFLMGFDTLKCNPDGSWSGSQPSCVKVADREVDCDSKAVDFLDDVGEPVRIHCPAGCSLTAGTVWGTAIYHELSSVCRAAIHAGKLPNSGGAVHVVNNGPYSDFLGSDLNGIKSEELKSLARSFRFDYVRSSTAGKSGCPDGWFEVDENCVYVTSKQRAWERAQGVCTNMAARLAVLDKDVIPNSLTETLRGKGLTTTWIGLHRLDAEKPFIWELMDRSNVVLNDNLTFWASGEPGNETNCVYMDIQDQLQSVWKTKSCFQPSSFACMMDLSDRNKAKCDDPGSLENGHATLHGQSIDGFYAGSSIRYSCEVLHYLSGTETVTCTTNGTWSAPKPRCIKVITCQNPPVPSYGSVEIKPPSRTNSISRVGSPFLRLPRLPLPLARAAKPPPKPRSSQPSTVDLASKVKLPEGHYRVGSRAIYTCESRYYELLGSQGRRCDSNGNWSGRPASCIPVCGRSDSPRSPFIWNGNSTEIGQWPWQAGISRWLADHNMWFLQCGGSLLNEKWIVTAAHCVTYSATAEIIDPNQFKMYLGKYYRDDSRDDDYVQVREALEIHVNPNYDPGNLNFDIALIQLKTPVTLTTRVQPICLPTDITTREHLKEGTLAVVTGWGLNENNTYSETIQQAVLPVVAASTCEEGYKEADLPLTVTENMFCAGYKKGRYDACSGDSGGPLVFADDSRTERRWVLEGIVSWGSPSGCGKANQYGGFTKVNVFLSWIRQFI
# Assay: recombinant Factor C (rFC) assay with different detergents and detergent concentrations
# Assay type: biochemical
# Conditions: for enhancement of the rFC assay: low concentrations of detergent
# Method: The recombinant Factor C (rFC) assay was carried out using 20 μl of each detergent (˜10× of final concentration), 150 μl of 1 EU/ml EC-6, 10 μl of rFC supernatant 031901I, 20 μl of 300 mM Tris, pH 8.0, and 20 μl of 0.55 mM DPR-coumarin substrate. The results of the assay were read at 38° C. using a Cytofluor reader set at 390/440 nm, 5 minutes per cycle, for 1 hour. The data were graphed after 30 minutes.
Compound,"Detergent concentration range for rFC inhibition (1 EU/ml EC-6 endotoxin, DPR-coumarin substrate, data after 30 minutes)",enhancement of the rFC assay
C[C@H](CCC(=O)O)[C@H]1CC[C@H]2[C@@H]3CC[C@@H]4C[C@H](O)CC[C@]4(C)[C@H]3C[C@H](O)[C@]12C [Deoxycholic Acid],>=0.0004%,
"CCCCCCCCS[C@@H]1O[C@H](CO)[C@@H](O)[C@H](O)[C@H]1O [OTG, n-Octyl-beta-D-thioglycopyranoside]",,2-7 fold
"CCCCCCCCCCCC(=O)OCCOCCOCCOCCOCCOCCOCCOCCOCCOCCOCCOCCOCCOCCOCCOCCOCCOCCOCCOCCOCC(OCCOCCOCCOCCOCCOCCOCCOCCOCCOCCOCCOCCOCCOCCOCCOCCOCCOCCOCCOCCO)C1OCC(OCCOCCOCCOCCOCCOCCOCCOCCOCCOCCOCCOCCOCCOCCOCCOCCOCCOCCOCCOCCO)C1OCCOCCOCCOCCOCCOCCOCCOCCOCCOCCOCCOCCOCCOCCOCCOCCOCCOCCOCCOCCO (stereo not drawn) [Tween 20, polyoxyethylene (20) sorbitan monolaurate]",,2-7 fold
"CCCCCCCC/C=C\CCCCCCCC(=O)OCCOCC(OCCO)C1OCC(OCCO)C1OCCO (stereo not drawn) [Tween 80, polyoxyethylene (20) sorbitan monooleate]",,2-7 fold
"CCCCCCCCCCCCCC[N+](C)(C)CCCS(=O)(=O)[O-] [Zwittergent 3-14, N-tetradecyl-N,N-dimethyl-3-ammonio-1-propanesulfonate]",,2-7 fold
Triton X-100,,2-7 fold
